Results published in patent US20240327522A1 (Genentech, published 2024).

B1: Rb.aVb8-65 (antibody, V domains shown)
VH: QSVEESGGRLVTPGTPLTLTCTVSGIDLSNYAMIWVRQAPGKGLEWIGIISSSDRIWYASWVKGRFTISKTSSTTVDLQMTSLTTEDTATYFCSRSVSNSYFDGWNLWGPGTLVTVSS
VL: DIVMTQTPASVEAAVGGTVTIKCQASENINSLLAWYQQKPGQPPKLLIYRASTLASGVPSRFRGSGSGTQFTLTISDLECDDAATYYCQSNYGFTGSGAFFYGFGGGTEVVVE
notes: Recombinant rabbit monoclonal antibody expressed in Expi293 cells; also called rb.αvβ8-65; rabbit αvβ8-65
B2: Hu.aVb8-65.H15L2 (aVb8-65.H15L2.hIgG1.LALAPG) (antibody, V domains shown)
VH: EVQLLESGGGLVQPGGSLRLSCAASGIDLSNYAMIWVRQAPGKGLEWVGIISSSDRIWYASWVKGRFTISRDNSKNTLYLQMNSLRAEDTAVYYCSRSVSNSYFDGWNLWGQGTLVTVSS
VL: DIQMTQSPSSVSASVGDRVTITCQASENINSLLAWYQQKPGKAPKLLIYRASTLASGVPSRFSGSGSGTDFTLTISSLQPEDFATYYCQSNYGFTGSGAFFYGFGQGTKVEIKR
notes: Human IgG1 LALAPG; also called PARS-20475-65 (IH) aVb8-65.H15L2.hIgG1.LALAPG; humanized αvβ8-65
B3: Hu.aVb8-92.H13L1 (aVb8-92.H13L1.hIgG1.LALAPG) (antibody, V domains shown)
VH: EQQLLESGGGLVQPGGSLRLSCAASGFSLSSYAMGWVRQAPGKGLEWIGVIRKDDNTYYGNWAKGRFTISRDSSKNTLYLQMNSLRAEDTAVYFCARALNTYVGFPYFNIWGPGTLVTVSS
VL: DAVLTQSPDSLAVSLGERATINCQSIKSVGDNKWLAWYQQKPGQPPKLLIYDASDLASGVPDRFSGSGSRTDFTLTISSLQAEDVAVYYCAGSVSSGDSGFGGGTKVEIKR
notes: Human IgG1 LALAPG; also called PARS-20463-65 (IH) aVb8-92.H13L1.hIgG1.LALAPG; humanized αvβ8-92

Legend:
[1] = target: recombinant human αvβ8 protein (PARS-17102) (human); experiment: SPR
[2] = target: recombinant human αvβ8 protein (PARS-17102) (human); experiment: SPR, Biacore T200, Protein A capture

Row | Binder | binding [1] | binding [2]
1 | B1 | binds | –
2 | B2 | binds | binds
3 | B3 | binds | –

Results are given in words; binding and its absence hold for the method and conditions named. A result given as binding can be weak or reduced; the word gives no strength.
